Target: D3 (Homo sapiens (Human), UniProt P35462)
Assay: Radioligand binding affinity, D3

Chains of the proteins cited; added tags and fusions are not shown.
UniProt P35462, whole entry: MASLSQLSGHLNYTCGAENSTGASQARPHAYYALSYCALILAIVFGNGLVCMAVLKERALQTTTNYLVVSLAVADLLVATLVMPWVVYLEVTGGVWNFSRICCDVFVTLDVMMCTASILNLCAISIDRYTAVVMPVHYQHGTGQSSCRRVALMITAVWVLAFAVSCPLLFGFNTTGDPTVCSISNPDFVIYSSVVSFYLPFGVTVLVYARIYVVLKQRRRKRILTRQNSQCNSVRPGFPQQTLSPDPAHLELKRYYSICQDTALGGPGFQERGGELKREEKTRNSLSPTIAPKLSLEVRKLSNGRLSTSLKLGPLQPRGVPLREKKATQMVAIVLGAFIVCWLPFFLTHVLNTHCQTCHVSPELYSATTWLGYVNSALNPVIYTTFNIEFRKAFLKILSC

**Q.** For `O=c1[nH]c2ccccc2n1CCCN1CCC(n2c(=O)[nH]c3cc(Cl)ccc32)CC1` [Domperidone], which Ki is on record?
**A.** Its Ki is 7.5 nM.
